# Results deposited as PubChem BioAssay AID1224830 (NIAID, 2016)
# Test: 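Regulators of TLR4 signalling towards TNF-alpha in macrophage-like cells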 (primary screen)
# Cell system: human THP-1 monocytic leukaemia cells, TNF dual-luciferase reporter clone, PMA-differentiated to macrophage-like cells
# Reagents: siRNA pool against human genes, 50 nM
# Timing: LPS for 4 h, given about 3 days after siRNA transfection
# Challenge: bacterial LPS (TLR4 ligand), 10 ng/ml
# Read-out: 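Ratio of firefly to renilla light, scaled to the plate median and expressed as a robust z-score per replicate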
# Reading the numbers: TNF reporter robust z-score: higher = stronger TNF reporter response to LPS
# Rule for the call: 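a well is active when its z-score exceeds 2.8 or falls below -1.5; control wells carry no call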
# Here is one part, drawn at random, of about 18,000 reagents tested. In the full data, about 2,900 (16%) got an active call. 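Calls are made per well; low scores hint the gene aids the LPS response, high scores that it dampens it.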 A number with no mark means an inactive call. Repeated entries: four replicate wells of each siRNA pool.
gene symbol,TNF reporter robust z-score
PLOD3 (GeneID 8985),-1.91 (active)
PLOD3 (GeneID 8985),-2.16 (active)
PLOD3 (GeneID 8985),-1.97 (active)
PLOD3 (GeneID 8985),-1.98 (active)
SPIN4 (GeneID 139886),-1.08
SPIN4 (GeneID 139886),-1.01
SPIN4 (GeneID 139886),-0.7
SPIN4 (GeneID 139886),0.56
ELOVL7 (GeneID 79993),0.21
ELOVL7 (GeneID 79993),-0.95
ELOVL7 (GeneID 79993),0.58
ELOVL7 (GeneID 79993),3.61 (active)
ZCCHC13 (GeneID 389874),-0.38
ZCCHC13 (GeneID 389874),0.44
ZCCHC13 (GeneID 389874),0.32
ZCCHC13 (GeneID 389874),0.87
MGST1 (GeneID 4257),-1.06
MGST1 (GeneID 4257),-1.08
MGST1 (GeneID 4257),-0.92
MGST1 (GeneID 4257),-0.79
CAPN11 (GeneID 11131),2.64
CAPN11 (GeneID 11131),-0.49
CAPN11 (GeneID 11131),-0.22
CAPN11 (GeneID 11131),2.04
SVOPL (GeneID 136306),0.2
SVOPL (GeneID 136306),0.67
SVOPL (GeneID 136306),0.05
SVOPL (GeneID 136306),-0.92
MYMK (GeneID 389827),0.49
MYMK (GeneID 389827),0.57
MYMK (GeneID 389827),-1.21
MYMK (GeneID 389827),-0.71
LIAS (GeneID 11019),-0.41
LIAS (GeneID 11019),-0.62
LIAS (GeneID 11019),-0.73
LIAS (GeneID 11019),-0.39
ZNF713 (GeneID 349075),1.74
ZNF713 (GeneID 349075),3.3 (active)
ZNF713 (GeneID 349075),1.31
ZNF713 (GeneID 349075),0.65
ING2 (GeneID 3622),1.31
ING2 (GeneID 3622),-0.37
ING2 (GeneID 3622),-0.07
ING2 (GeneID 3622),1.53
KCNH3 (GeneID 23416),-0.2
KCNH3 (GeneID 23416),0.37
KCNH3 (GeneID 23416),-0.71
KCNH3 (GeneID 23416),0.82
FXYD2 (GeneID 486),-1.18
FXYD2 (GeneID 486),0.06
FXYD2 (GeneID 486),-0.74
FXYD2 (GeneID 486),1.16
RNF40 (GeneID 9810),0.95
RNF40 (GeneID 9810),-0.6
RNF40 (GeneID 9810),-0.5
RNF40 (GeneID 9810),-0.54
SH3PXD2A (GeneID 9644),1.78
SH3PXD2A (GeneID 9644),3.38 (active)
SH3PXD2A (GeneID 9644),3.46 (active)
SH3PXD2A (GeneID 9644),1.81
TNFSF18 (GeneID 8995),1.2
TNFSF18 (GeneID 8995),-0.81
TNFSF18 (GeneID 8995),-0.64
TNFSF18 (GeneID 8995),0.43
LHB (GeneID 3972),0.33
LHB (GeneID 3972),-0.13
LHB (GeneID 3972),-1.02
LHB (GeneID 3972),-0.2
SLC25A31 (GeneID 83447),-0.06
SLC25A31 (GeneID 83447),0.15
SLC25A31 (GeneID 83447),-0.87
SLC25A31 (GeneID 83447),0.29
TNS2 (GeneID 23371),-0.98
TNS2 (GeneID 23371),-1.14
TNS2 (GeneID 23371),-1.05
TNS2 (GeneID 23371),0.86
RUSC2 (GeneID 9853),-0.99
RUSC2 (GeneID 9853),-0.22
RUSC2 (GeneID 9853),-0.36
RUSC2 (GeneID 9853),-0.37
LEPROT (GeneID 54741),-0.06
LEPROT (GeneID 54741),-0.66
LEPROT (GeneID 54741),0.24
PPP2R3B (GeneID 28227),-0.51
PPP2R3B (GeneID 28227),1.27
PPP2R3B (GeneID 28227),0.11
PPP2R3B (GeneID 28227),2.1
KMT2C (GeneID 58508),0.09
KMT2C (GeneID 58508),-0.02
KMT2C (GeneID 58508),-1.29
KMT2C (GeneID 58508),-0.51
POMZP3 (GeneID 22932),2.83 (active)
POMZP3 (GeneID 22932),2.15
POMZP3 (GeneID 22932),0.75
POMZP3 (GeneID 22932),0.41
FAM91A1 (GeneID 157769),0.06
FAM91A1 (GeneID 157769),-0.65
FAM91A1 (GeneID 157769),0.45
FAM91A1 (GeneID 157769),1.07
MTCP1 (GeneID 4515),2.25
MTCP1 (GeneID 4515),3.12 (active)
MTCP1 (GeneID 4515),-1.36
MTCP1 (GeneID 4515),-0.17
APMAP (GeneID 57136),-0.23
APMAP (GeneID 57136),0.48
APMAP (GeneID 57136),-0.07
APMAP (GeneID 57136),0.45
RGPD5 (GeneID 84220),0.26
RGPD5 (GeneID 84220),-0.41
RGPD5 (GeneID 84220),0.19
RGPD5 (GeneID 84220),0.5

9 of these entries in another layout:
MGST1 (GeneID 4257) | TNF reporter robust z-score: -0.92
MGST1 (GeneID 4257) | TNF reporter robust z-score: -0.79
CAPN11 (GeneID 11131) | TNF reporter robust z-score: 2.64
CAPN11 (GeneID 11131) | TNF reporter robust z-score: -0.49
CAPN11 (GeneID 11131) | TNF reporter robust z-score: -0.22
CAPN11 (GeneID 11131) | TNF reporter robust z-score: 2.04
SVOPL (GeneID 136306) | TNF reporter robust z-score: 0.2
SVOPL (GeneID 136306) | TNF reporter robust z-score: 0.67
SVOPL (GeneID 136306) | TNF reporter robust z-score: 0.05
